{
  "sequences": {"note": "Sequences of proteins named here, by UniProt entry; tags and fusion partners are left off. A change or cut given only in a name is not applied to a line headed by its entry.", "UniProt Q61088": "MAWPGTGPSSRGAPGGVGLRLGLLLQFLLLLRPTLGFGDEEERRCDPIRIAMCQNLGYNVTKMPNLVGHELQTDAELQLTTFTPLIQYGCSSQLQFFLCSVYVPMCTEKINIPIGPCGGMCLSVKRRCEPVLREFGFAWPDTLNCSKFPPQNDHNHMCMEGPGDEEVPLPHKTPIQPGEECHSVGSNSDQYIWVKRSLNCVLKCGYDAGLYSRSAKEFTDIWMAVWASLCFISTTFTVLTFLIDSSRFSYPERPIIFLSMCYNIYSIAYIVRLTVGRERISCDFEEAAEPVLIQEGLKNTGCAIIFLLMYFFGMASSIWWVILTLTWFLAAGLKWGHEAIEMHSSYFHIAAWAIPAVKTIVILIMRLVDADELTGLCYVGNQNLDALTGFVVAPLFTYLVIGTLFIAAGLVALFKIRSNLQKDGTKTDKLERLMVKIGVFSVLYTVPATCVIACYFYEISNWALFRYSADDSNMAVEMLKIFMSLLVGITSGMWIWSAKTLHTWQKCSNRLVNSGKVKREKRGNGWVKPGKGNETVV", "UniProt Q60780": "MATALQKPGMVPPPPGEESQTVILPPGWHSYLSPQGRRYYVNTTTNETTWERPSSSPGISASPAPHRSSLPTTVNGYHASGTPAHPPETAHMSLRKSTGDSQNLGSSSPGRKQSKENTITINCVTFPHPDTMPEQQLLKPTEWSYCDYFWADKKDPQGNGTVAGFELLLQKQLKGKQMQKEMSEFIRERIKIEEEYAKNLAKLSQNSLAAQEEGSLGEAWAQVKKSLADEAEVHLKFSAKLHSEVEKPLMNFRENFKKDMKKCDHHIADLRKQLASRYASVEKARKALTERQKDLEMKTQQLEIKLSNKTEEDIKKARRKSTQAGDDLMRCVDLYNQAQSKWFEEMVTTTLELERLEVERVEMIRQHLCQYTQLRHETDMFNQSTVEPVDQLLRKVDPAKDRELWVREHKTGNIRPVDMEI", "UniProt Q61235": "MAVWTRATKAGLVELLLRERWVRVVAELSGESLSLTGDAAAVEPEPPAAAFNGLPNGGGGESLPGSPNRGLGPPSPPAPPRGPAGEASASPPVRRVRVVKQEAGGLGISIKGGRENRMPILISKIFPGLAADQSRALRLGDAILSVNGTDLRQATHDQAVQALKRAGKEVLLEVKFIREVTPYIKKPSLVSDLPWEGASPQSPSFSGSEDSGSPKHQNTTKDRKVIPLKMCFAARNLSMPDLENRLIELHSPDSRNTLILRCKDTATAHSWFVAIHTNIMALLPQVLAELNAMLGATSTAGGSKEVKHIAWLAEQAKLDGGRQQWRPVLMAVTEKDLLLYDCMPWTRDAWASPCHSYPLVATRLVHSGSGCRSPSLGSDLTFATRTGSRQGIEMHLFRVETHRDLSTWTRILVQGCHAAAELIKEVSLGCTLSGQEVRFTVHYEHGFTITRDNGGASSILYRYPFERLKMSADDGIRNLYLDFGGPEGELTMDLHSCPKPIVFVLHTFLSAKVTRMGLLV", "UniProt Q60790": "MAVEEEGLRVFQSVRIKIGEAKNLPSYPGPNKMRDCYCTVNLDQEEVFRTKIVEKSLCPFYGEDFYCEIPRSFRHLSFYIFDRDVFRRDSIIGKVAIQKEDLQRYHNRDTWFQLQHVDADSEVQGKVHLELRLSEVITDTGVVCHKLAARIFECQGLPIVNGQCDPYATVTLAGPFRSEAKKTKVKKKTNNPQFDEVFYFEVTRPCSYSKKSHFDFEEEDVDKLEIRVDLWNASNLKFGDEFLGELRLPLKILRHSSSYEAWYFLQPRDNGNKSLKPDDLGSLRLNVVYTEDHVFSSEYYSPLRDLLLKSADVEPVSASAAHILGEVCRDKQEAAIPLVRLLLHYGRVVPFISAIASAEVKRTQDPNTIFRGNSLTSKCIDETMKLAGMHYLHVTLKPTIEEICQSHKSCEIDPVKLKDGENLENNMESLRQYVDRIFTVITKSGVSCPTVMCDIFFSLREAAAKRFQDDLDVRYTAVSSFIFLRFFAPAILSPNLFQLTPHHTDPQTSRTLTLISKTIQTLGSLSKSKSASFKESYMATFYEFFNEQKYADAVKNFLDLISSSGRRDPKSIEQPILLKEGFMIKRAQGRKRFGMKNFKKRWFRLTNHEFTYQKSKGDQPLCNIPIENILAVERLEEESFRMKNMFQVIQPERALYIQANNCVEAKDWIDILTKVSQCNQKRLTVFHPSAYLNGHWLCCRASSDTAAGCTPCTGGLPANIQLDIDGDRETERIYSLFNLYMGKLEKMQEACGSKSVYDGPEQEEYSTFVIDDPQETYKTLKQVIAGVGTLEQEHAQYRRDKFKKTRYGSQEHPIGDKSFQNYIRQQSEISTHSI", "UniProt Q5SRX1": "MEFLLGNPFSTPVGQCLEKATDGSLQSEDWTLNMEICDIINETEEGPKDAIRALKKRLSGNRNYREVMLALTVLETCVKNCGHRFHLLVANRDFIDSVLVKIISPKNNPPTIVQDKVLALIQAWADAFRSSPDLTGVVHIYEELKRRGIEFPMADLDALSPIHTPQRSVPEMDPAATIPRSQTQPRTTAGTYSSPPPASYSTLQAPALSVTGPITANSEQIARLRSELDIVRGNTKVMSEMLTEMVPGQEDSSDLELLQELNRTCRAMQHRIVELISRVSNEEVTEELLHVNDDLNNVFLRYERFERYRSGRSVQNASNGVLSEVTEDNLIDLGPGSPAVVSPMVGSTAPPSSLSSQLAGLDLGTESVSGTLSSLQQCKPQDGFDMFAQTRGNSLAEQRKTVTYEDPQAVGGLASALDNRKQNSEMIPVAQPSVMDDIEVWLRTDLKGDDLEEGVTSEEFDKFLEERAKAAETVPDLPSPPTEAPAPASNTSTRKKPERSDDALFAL", "UniProt Q5SX40, whole entry": "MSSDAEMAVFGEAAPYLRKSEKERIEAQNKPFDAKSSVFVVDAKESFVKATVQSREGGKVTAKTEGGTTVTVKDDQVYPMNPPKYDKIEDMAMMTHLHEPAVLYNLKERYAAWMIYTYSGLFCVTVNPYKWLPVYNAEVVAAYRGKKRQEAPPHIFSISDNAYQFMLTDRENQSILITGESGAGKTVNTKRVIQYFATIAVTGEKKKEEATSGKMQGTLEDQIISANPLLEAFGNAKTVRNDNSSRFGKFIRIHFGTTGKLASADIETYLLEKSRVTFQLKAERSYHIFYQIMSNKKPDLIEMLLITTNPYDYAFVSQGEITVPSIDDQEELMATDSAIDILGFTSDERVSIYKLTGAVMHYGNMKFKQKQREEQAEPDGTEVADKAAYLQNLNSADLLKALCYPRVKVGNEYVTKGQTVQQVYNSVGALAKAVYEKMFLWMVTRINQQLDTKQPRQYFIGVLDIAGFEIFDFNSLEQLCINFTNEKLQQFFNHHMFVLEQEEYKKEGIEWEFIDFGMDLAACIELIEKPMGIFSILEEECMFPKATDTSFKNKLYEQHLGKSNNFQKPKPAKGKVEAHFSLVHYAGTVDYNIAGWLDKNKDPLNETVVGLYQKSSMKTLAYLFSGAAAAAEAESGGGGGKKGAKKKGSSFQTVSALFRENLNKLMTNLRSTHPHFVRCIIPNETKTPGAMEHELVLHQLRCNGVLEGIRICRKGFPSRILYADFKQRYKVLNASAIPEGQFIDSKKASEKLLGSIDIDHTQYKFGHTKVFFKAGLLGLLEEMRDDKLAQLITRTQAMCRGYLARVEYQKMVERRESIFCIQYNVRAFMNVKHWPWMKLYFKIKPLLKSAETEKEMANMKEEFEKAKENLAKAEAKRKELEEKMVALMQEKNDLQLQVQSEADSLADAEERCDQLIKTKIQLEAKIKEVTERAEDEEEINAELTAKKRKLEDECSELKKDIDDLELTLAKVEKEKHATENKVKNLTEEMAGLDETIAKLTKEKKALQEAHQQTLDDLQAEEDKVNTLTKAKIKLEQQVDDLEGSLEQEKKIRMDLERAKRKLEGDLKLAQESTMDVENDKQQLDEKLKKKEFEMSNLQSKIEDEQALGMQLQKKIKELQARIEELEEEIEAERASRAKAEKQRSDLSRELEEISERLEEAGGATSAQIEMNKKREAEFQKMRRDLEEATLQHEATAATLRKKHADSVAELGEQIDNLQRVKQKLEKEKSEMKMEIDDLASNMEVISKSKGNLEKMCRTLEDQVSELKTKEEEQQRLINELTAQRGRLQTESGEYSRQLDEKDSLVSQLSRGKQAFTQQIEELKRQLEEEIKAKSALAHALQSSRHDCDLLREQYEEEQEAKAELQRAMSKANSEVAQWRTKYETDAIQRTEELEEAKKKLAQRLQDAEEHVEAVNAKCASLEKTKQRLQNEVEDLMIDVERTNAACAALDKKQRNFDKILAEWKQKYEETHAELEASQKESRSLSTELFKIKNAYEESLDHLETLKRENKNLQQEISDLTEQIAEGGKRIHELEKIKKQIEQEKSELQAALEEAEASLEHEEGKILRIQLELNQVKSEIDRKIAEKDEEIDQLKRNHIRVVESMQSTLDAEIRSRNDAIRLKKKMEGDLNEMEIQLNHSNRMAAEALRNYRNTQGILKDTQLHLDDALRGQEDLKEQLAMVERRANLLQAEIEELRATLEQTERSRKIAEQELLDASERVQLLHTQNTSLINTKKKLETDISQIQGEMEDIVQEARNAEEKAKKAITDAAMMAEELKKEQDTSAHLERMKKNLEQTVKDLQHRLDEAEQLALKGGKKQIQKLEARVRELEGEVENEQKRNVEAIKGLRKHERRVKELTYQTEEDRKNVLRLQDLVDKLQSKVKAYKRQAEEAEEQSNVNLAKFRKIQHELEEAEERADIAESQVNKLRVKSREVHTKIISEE", "UniProt Q5XJY4": "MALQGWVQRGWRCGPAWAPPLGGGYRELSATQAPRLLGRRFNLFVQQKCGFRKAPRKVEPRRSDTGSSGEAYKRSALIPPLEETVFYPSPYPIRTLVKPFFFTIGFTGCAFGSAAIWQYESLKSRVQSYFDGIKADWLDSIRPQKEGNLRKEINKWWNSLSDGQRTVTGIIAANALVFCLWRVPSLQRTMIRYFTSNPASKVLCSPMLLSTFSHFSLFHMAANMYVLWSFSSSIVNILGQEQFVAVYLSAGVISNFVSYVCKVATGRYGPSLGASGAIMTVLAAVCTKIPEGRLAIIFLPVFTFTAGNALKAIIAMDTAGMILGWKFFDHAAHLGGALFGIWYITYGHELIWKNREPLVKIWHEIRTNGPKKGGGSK", "UniProt Q5U465": "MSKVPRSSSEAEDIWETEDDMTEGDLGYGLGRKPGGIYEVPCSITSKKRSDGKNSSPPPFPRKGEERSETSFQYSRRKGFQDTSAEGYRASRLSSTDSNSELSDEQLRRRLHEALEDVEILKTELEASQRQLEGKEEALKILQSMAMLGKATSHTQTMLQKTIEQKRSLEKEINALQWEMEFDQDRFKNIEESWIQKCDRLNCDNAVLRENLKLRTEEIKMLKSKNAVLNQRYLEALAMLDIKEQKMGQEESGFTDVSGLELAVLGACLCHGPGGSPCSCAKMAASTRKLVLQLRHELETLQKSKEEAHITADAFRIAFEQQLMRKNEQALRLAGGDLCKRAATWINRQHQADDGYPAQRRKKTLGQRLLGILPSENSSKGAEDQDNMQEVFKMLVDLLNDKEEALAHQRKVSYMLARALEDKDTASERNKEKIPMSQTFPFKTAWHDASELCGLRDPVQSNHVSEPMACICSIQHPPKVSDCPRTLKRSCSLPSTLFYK", "UniProt Q5KU39": "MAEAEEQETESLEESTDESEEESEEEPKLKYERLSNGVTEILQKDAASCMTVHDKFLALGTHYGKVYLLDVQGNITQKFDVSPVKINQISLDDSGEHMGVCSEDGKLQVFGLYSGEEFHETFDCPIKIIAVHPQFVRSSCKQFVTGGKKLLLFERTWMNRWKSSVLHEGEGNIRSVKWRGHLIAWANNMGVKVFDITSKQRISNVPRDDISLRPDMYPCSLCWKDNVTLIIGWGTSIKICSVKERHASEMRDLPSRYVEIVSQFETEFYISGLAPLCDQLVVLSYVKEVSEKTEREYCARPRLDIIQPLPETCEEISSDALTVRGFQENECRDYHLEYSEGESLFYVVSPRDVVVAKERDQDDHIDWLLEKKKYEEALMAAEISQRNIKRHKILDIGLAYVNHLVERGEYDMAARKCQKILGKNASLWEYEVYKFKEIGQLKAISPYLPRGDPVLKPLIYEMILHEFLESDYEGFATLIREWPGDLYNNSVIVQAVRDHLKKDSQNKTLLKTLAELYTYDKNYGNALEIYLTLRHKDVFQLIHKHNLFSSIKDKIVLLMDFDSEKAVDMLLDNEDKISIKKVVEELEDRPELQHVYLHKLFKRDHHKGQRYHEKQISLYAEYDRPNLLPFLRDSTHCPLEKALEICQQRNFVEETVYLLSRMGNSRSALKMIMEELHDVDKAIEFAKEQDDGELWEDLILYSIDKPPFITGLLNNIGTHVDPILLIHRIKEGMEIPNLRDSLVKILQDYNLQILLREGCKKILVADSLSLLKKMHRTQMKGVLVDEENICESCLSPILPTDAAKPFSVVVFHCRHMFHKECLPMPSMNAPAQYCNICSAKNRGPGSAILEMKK"},
  "source": "the supplement of paper PMC12819154",
  "about": "“High-throughput peptide-centric local stability assay extends protein–ligand identification to membrane proteins, tissues and bacteria” (Nature Structural & Molecular Biology, 2025)",
  "note": "The other results are listed elsewhere or left out. Small differences around the control level are noise.",
  "data": [
    {"compound": "CN[C@@H]1C[C@H]2O[C@@](C)([C@@H]1OC)n1c3ccccc3c3c4c(c5c6ccccc6n2c5c31)C(=O)NC4 [staurosporine]", "assay": "log2 fold change of tryptic peptide abundance, ligand vs vehicle (limited proteolysis) (log2 ratio); higher = more trypsin-susceptible (destabilized)", "settings": "ligand concentration: 20 uM; sample: mouse liver crude lysate; replicate design: treated separately", "values": [
      {"target": "UniProt Q61088 (peptide sequence: GNGWVKPGK, peptide start residue: 523)", "log2 fold change": -0.237},
      {"target": "UniProt Q5U4E2 (peptide sequence: IHTGEKPYPCTECGRR, peptide start residue: 278)", "log2 fold change": 1.02},
      {"target": "UniProt Q60902 (peptide sequence: LPLDVLGR, peptide start residue: 159)", "log2 fold change": -0.347},
      {"target": "UniProt Q60769 (peptide sequence: CQACLQDVTR, peptide start residue: 506)", "log2 fold change": 0.465},
      {"target": "UniProt Q5I012 (peptide sequence: AAPPEVPKSPEK, peptide start residue: 858)", "log2 fold change": 0.469},
      {"target": "UniProt Q60592 (peptide sequence: LLQDAHER, peptide start residue: 271)", "log2 fold change": -0.418},
      {"target": "UniProt Q61062 (peptide sequence: SGPAASEHSHR, peptide start residue: 625)", "log2 fold change": 0.77},
      {"target": "UniProt Q60780 (peptide sequence: LSNKTEEDIK, peptide start residue: 306)", "log2 fold change": 0.243},
      {"target": "UniProt Q61235 (peptide sequence: VVKQEAGGLGISIK, peptide start residue: 98)", "log2 fold change": -0.211},
      {"target": "UniProt Q60790 (peptide sequence: LSEVITDTGVVCHK, peptide start residue: 133)", "log2 fold change": -0.418},
      {"target": "UniProt Q61210 (peptide sequence: QEVISELLVTEAAHVR, peptide start residue: 417)", "log2 fold change": 0.409},
      {"target": "UniProt Q60973 (peptide sequence: YMPQNPHIIATK, peptide start residue: 131)", "log2 fold change": -0.504},
      {"target": "UniProt Q5SRX1 (peptide sequence: GNSLAEQR, peptide start residue: 392)", "log2 fold change": -0.161},
      {"target": "UniProt Q5NCR9 (peptide sequence: TYIEKEDD, peptide start residue: 535)", "log2 fold change": -0.2},
      {"target": "UniProt Q60770 (peptide sequence: SAEETFQLSR, peptide start residue: 464)", "log2 fold change": -0.295},
      {"target": "UniProt Q60992 (peptide sequence: VVEKDSWIHITEAK, peptide start residue: 712)", "log2 fold change": 0.288},
      {"target": "UniProt Q60875 (peptide sequence: QHTLLQEELRR, peptide start residue: 809)", "log2 fold change": -0.311},
      {"target": "UniProt Q5SU73 (peptide sequence: VTGSPAEEDEEETKKK, peptide start residue: 168)", "log2 fold change": 0.27},
      {"target": "UniProt Q61043 (peptide sequence: LQEENSILR, peptide start residue: 1509)", "log2 fold change": 0.0738},
      {"target": "UniProt Q5XF89 (peptide sequence: CLVNEVSNGHAVHLTEENR, peptide start residue: 101)", "log2 fold change": 0.0274},
      {"target": "UniProt Q61193 (peptide sequence: SRDPEEGGDPGGR, peptide start residue: 25)", "log2 fold change": -0.204},
      {"target": "UniProt Q5IRJ6 (peptide sequence: KEAEIEYR, peptide start residue: 194)", "log2 fold change": -0.138},
      {"target": "UniProt Q5SX40 (peptide sequence: LQTESGEYSR, peptide start residue: 1287)", "log2 fold change": 0.394},
      {"target": "UniProt Q5U5Q9 (peptide sequence: GSHVSQGNEAEQR, peptide start residue: 167)", "log2 fold change": 1.05},
      {"target": "UniProt Q5XJY4 (peptide sequence: VQSYFDGIK, peptide start residue: 126)", "log2 fold change": 0.223},
      {"target": "UniProt Q61112 (peptide sequence: AVDPDGDGHVSWDEYK, peptide start residue: 147)", "log2 fold change": -0.0788},
      {"target": "UniProt Q5U458 (peptide sequence: AIYDIYGK, peptide start residue: 76)", "log2 fold change": 0.326},
      {"target": "UniProt Q61029 (peptide sequence: PEFLEDPSVLTKDKLK, peptide start residue: 2)", "log2 fold change": -0.13},
      {"target": "UniProt Q5U465 (peptide sequence: LLGILPSENSSK, peptide start residue: 369)", "log2 fold change": -0.236},
      {"target": "UniProt Q5KU39 (peptide sequence: DSTHCPLEK, peptide start residue: 633)", "log2 fold change": 0.617},
      {"target": "UniProt Q61263 (peptide sequence: NFMDTYR, peptide start residue: 22)", "log2 fold change": 0.23},
      {"target": "UniProt Q60634 (peptide sequence: LLAELPASVHALTGVDLSK, peptide start residue: 398)", "log2 fold change": -0.229},
      {"target": "UniProt Q5SYL3 (peptide sequence: SSILHLQEAVR, peptide start residue: 1812)", "log2 fold change": 0.378},
      {"target": "UniProt Q61102 (peptide sequence: VQNQDSLGWDAKK, peptide start residue: 712)", "log2 fold change": -0.127},
      {"target": "UniProt Q60641 (peptide sequence: KLPAGHADLLEER, peptide start residue: 355)", "log2 fold change": -0.148}
    ]}
  ]
}
